In data set [1] the target is biotinylated human glucagon (Homo sapiens) (UniProt P01275). As to the kind of experiment: SPR. The following applies: L-DNA, synthetic protein, mirror-image nucleic acid, variant of 259-H6-002.
Data set [2] has as its target human glucagon (Homo sapiens) (UniProt P01275). Nature of the data set: activity in cells. The following applies: L-DNA, glucagon-induced cAMP, CHO glucagon receptor cells, protein details: L-peptide, mirror-image nucleic acid.
Data set [3] deals with T1, human alpha-CGRP (Homo sapiens) (UniProt P06881).
T1 sequence: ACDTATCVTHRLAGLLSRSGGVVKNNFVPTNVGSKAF
As to the kind of experiment: activity in cells. Particulars: L-RNA, 5'-40 kDa PEG, CGRP-induced cAMP, SK-N-MC cells, 37 C, synthetic protein, mirror-image nucleic acid, variant of 226-F2-001.

By UniProt entry, the sequences of proteins in these tests, tags left out. Residues count along the entry.
UniProt P01275, 53-81: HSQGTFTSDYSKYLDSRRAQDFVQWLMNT

In data set [4] the target is T1, human alpha-CGRP (Homo sapiens). As to the kind of experiment: SPR. The following applies: L-RNA, synthetic protein, mirror-image nucleic acid.
In a further data set the target is T2, human C5a (Homo sapiens) (UniProt P01031).
T2 sequence: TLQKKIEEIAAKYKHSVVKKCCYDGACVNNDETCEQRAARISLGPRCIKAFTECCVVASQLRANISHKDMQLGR
Nature of the data set: activity in cells. Particulars: L-RNA, 5'-40 kDa PEG, chemotaxis of BA/F3 huC5aR cells to 0.1 nM C5a, purified recombinant protein, protein details: Sigma Aldrich, amine-coupled for SPR, mirror-image nucleic acid.

The exact form of at least one protein or probe is not confirmed. For some of these results: The comparison behind a weaker result is the experiment's own reference, which may not be listed here. For some of these results: Where a protein sequence is shown, tags need not be part of it.

Results on 17 sequences are retold here after patent US20140350088.

The IC50 is the midpoint of a concentration-inhibition curve.

As for “ACTCGAGAGGAAAGGTTGGTAAAGGTTCGGTTGGATTCACTCGAGT [259-H6-002-R13]”, the binding result in data set [1] (rA at 13) is reported as “binds”. In data set [2] (rA at 13, variant of 259-H6-002), this sequence yielded a half-maximal inhibitory concentration (IC50) of 12.5 nM.

In data set [2] (single-stranded DNA), “ACTCGAGAGGAAAGGTTGGTAAAGGTTCGGTTGGATTCACTCGAGT [259-H6-002]” came in with an IC50 of 176 nM.

For “ACTCGAGAGGAAAGGTTGGTAAAGGTTCGGTTGGAUTCACTCGAGT [259-H6-002-R13-R24-R36]”, the binding result in data set [1] (rA at 13, rG at 24, rU at 36, compared with double substitutions) is listed as “binds”. The sequence further registered an IC50 in data set [2] (rA at 13, rG at 24, rU at 36, variant of 259-H6-002) of 6.2 nM.

“CCGUGCUGUCGGAGACUACUCGUCGAGUAGAAAUAGGUCCCCUCCCACGG [226-F2-001-5'-40kDa-PEG]” returned an IC50 in data set [3] of 3.8 nM.

Regarding “CCGUGCUGUCGGAGACUACUCGUCGAGUAGAAAUAGGUCCCCUCCCACGG [226-F2-001-D37]”, the binding result in data set [4] (2'-deoxy at 37, improved vs parent, 37 C, synthetic backbone) is on record as “binds”.

In the case of “CCGUGCUGUCGGAGACUACUCGUCGAGUAGAAAUAGGUCCCCUCCCACGG [226-F2-001-D39]”, in data set [4] (2'-deoxy at 39, improved vs parent, 37 C, synthetic backbone), the binding result was “binds”.

As for “CCGUGCUGUCGGAGACUACUCGUCGAGUAGAAAUAGGUCCCCUCCCACGG [226-F2-001-D40]”, the binding result in data set [4] (dC at 40, reduced or lost binding vs parent, variant of 226-F2-001) was “binds more weakly”.

Take “CCGUGCUGUCGGAGACUACUCGUCGAGUAGAAAUAGGUCCCCUCCCACGG [226-F2-001-D42]”: the binding result in data set [4] (2'-deoxy at 42, improved vs parent, 37 C, synthetic backbone) is recorded as “binds”.

On to “CCGUGCUGUCGGAGACUACUCGUCGAGUAGAAAUAGGUCCCCUCCCACGG [226-F2-001-D45]”, for which, in data set [4] (2'-deoxy at 45, improved vs parent, 37 C, synthetic backbone), the binding result is given as “binds”.

For “CCGUGCUGUCGGAGACUACUCGUCGAGUAGAAAUAGGUCCCCUCCCACGG [226-F2-001-D46]”, the binding result in data set [4] (2'-deoxy at 46, improved vs parent, 37 C, synthetic backbone) was “binds”.

Take “CCGUGCUGUCGGAGACUACUCGUCGAGUAGAAAUAGGUCCCCUCCCACGG [226-F2-001-D47]”: the binding result in data set [4] (2'-deoxy at 47, improved vs parent, 37 C, synthetic backbone) is recorded as “binds”.

For “CCGUGCUGUCGGAGACUACUCGUCGAGUAGAAAUAGGUCCCCUCCCACGG [226-F2-001-D48]”, in data set [4] (2'-deoxy at 48, improved vs parent, 37 C, synthetic backbone), the binding result is “binds”.

Turning to “CCGUGCUGUCGGAGACUACUCGUCGAGUAGAAAUAGGUCCCCUCCCACGG [226-F2-001-D49]”, the binding result in data set [4] (2'-deoxy at 49, improved vs parent, 37 C, synthetic backbone) is listed as “binds”.

Regarding “CCGUGCUGUCGGAGACUACUCGUCGAGUAGAAAUAGGUCCCCUCCCACGG [226-F2-001-D50]”, in data set [4] (2'-deoxy at 50, improved vs parent, 37 C, synthetic backbone), the binding result was “binds”.

With “CCGUGCUGUCGGAGACUACUCGUCGAGUAGAAAUAGGUCCCCUCCCACGG [NOX-L41 (226-F2-001-D41-5'-40kDa-PEG)]”, in data set [3] (dC at 41), the IC50 was found to be 0.39 nM.

Regarding “GCCUGAUGUGGUGGUGAAGGGUUGUUGGGUGUCGACGCACAGGC [NOX-D19 (5'-40 kDa-PEG)]”, the IC50 with human C5a (Homo sapiens) (variant of NOX-D19001) amounted to 2.39 nM.

As to “GCCUGAUGUGGUGGUGAAGGGUUGUUGGGUGUCGACGCACAGGC [NOX-D19-6xDNA (PEGylated)]”, the half-inhibitory concentration (IC50) in the data set with human C5a (Homo sapiens) (dU at 9, 30, 32, dG at 16, dA at 17, dC at 40, variant of NOX-D19001-6xDNA (D09-16-17-30-32-40)) is 0.27 nM.
